# Measurements published in patent publication US10857167B2, “Use of oligosaccharide compositions to enhance weight gain” (Children's Hospital Medical Center, priority 2015, dated 2020).
# This continues a long series; more values of the same kind are listed elsewhere.
# System: distal small bowel gene expression
# Experiment: RNA sequencing / transcriptional analysis of small bowel 56 days after ICR (2′-FL signature response)
# Assay type: in vivo, mouse
# Text: Luminal small bowel contents were expressed into AllProtect Tissue Reagent (Qiagen Inc, CA). Bacterial DNA was extracted using the AllPrep DNA/RNA Mini Kit (Qiagen Inc, CA), according to kit instructions and prior to sequencing (described below). Small bowel tissue samples for RNA were placed into RNA Later (Life Technologies, NY). RNA extraction was accomplished following Qiagen RNeasy Plus Kit instruction (Qiagen Inc, CA). All nucleic acid samples were then stored at -80 Celsius until sequenced (described below). Transcriptional analysis was carried out on resected and harvested small bowel samples obtained from operated mice taken to 8 weeks. Murine RNA sequencing libraries were prepared from approximately 1.5 μg RNA using the TruSeq RNA Sample Preparation Kit (Illumina, Calif.) and sequenced using the HiSeq 2000 Sequencing System (Illumina, Calif.) with single-end 50 bp reads. Following removal of primers and barcodes, sequences were aligned to the mm10 genome using reference annotations from UCSC (Rosenbloom et al. (2015) Nucleic acids research 43: […]-681) (n=36,186 entities). Aligned reads were quantified and used to compute reads per kilobase per million mapped reads (RPKM); raw counts were then normalized using the DESeq algorithm and each harvested sample was baselined to its own resected sample. A filter was applied to the data, requiring at least three reads in all samples of at least one of the four experimental conditions (n=14,489 entities). The data discussed in this publication have been deposited in NCBI's Gene Expression Omnibus and are accessible through NCBI Gene Expression Omnibus (GEO) Series accession number GSE72590. Edgar et al. (2002) Nucleic acids research 30: 207-210. In order to characterize the impact of 2'-FL supplementation while accounting for the effect of ileoecal resection, a t-test was applied between resected and harvested samples within control and experimental animals. Significance was set at a p-value of ≤0.05 and a fold change of 3, which generated 2,576 differentially regulated entities across two comparisons. Gene set unions and intersections of the control and experimental gene sets were identified through Venn diagrams. From the master list, the gene list specific to animals supplemented with 2'-FL were removed in order to identify genes differentially regulated only by ICR (n=546 entities); this gene set characterizes the adaptive response. Further, the 2'-FL response (n=2,030 entities) was identified by removing the adaptive response signature described above from the master list, leaving only genes regulated by 2'-FL supplementation after ICR which were not found in the non-supplemented adaptive response. Heatmaps were generated using hierarchical clustering with the Pearson's Centered distance metric and the average linkage rule; both entities and samples were clustered. All genomic analyses described above were performed in Strand NGS (Strand Life Sciences, CA). Gene list functional enrichment was initially discovered using ToppFun, a member of the ToppGene Suite. Chen et al. (2009) Nucleic acids research 37: […]-311. No statistical correction was selected. Gene lists were further analyzed using ClueGO, a plugin for Cytoscape designed to decipher functionally grouped gene ontology and pathway annotation networks. Bindea et al. (2009) Bioinformatics 25: 1091-1093. At the time of data analysis, the annotation files were updated from sources to Jan. 1, 2015. “GO Term Fusion” was enabled to manage ontologic term redundancy and network specificity was set to medium. Results were restricted to pathways with p≤0.05 using Benjamini-Hochberg correction and Kappa scoring was set to 0.4. Biocyc annotations were assigned a rectangle, gene ontology biologic processes were assigned an ellipse, and […] annotations were assigned a diamond shape. No meaning was assigned to size or color. […]
structure (smiles),measurement,setting,value
"C[C@@H]1O[C@@H](O[C@H]2[C@H](O[C@H]3[C@H](O)[C@@H](O)C(O)O[C@@H]3CO)O[C@H](CO)[C@H](O)[C@@H]2O)[C@@H](O)[C@H](O)[C@@H]1O (stereo partly drawn) [2′-FL, 2′-fucosyllactose]",Fold Change (Pre- to Post-op),gene Helz,−5.696
same,Fold Change (Pre- to Post-op),gene Hhatl,−3.096
same,Fold Change (Pre- to Post-op),gene Hip1,−4.943
same,Fold Change (Pre- to Post-op),gene Hipk2,−3.567
same,Fold Change (Pre- to Post-op),gene Hivep1,−3.83
same,Fold Change (Pre- to Post-op),gene Hk1,−6.773
same,Fold Change (Pre- to Post-op),gene Hnf1a,−3.666
same,Fold Change (Pre- to Post-op),gene Hnrnpul1,−3.801
same,Fold Change (Pre- to Post-op),gene Hoxa5,−4.596
same,Fold Change (Pre- to Post-op),gene Hoxb5,−6.299
same,Fold Change (Pre- to Post-op),gene Hoxc6,−4.595
same,Fold Change (Pre- to Post-op),gene Hpcal4,−3.525
same,Fold Change (Pre- to Post-op),gene Hpn,−4.768
same,Fold Change (Pre- to Post-op),gene Hr,−6.939
same,Fold Change (Pre- to Post-op),gene Hs6st1,−3.204
same,Fold Change (Pre- to Post-op),gene Hspg2,−3.323
same,Fold Change (Pre- to Post-op),gene Hyal1,−6.874
same,Fold Change (Pre- to Post-op),gene Iffo2,−3.093
same,Fold Change (Pre- to Post-op),gene Ift122,−5.863
same,Fold Change (Pre- to Post-op),gene Igdcc4,−5.775
same,Fold Change (Pre- to Post-op),gene Igf2bp2,−3.107
same,Fold Change (Pre- to Post-op),gene Igfbp5,−5.849
same,Fold Change (Pre- to Post-op),gene Igsf9b,−3.26
same,Fold Change (Pre- to Post-op),gene Ikzf2,−3.472
same,Fold Change (Pre- to Post-op),gene Il2ra,−3.155
same,Fold Change (Pre- to Post-op),gene Il2rg,−3.037
same,Fold Change (Pre- to Post-op),gene Il7r,−7.867
same,Fold Change (Pre- to Post-op),gene Il12rb2,−5.847
same,Fold Change (Pre- to Post-op),gene Il17rd,−8.947
same,Fold Change (Pre- to Post-op),gene Il17re,−3.161
same,Fold Change (Pre- to Post-op),gene Il27ra,−7.023
same,Fold Change (Pre- to Post-op),gene Ino80,−3.382
same,Fold Change (Pre- to Post-op),gene Inpp5d,−6.062
same,Fold Change (Pre- to Post-op),gene Insm1,−3.091
same,Fold Change (Pre- to Post-op),gene Ints1,−3.204
same,Fold Change (Pre- to Post-op),gene Ints9,−3.326
same,Fold Change (Pre- to Post-op),gene Ipo9,−3.306
same,Fold Change (Pre- to Post-op),gene Iqgap3,−4.188
same,Fold Change (Pre- to Post-op),gene Iqsec1,−8.357
same,Fold Change (Pre- to Post-op),gene Iqsec2,−3.43
same,Fold Change (Pre- to Post-op),gene Irak3,−3.099
same,Fold Change (Pre- to Post-op),gene Irf2bp1,−3.804
same,Fold Change (Pre- to Post-op),gene Irgq,−4.847
same,Fold Change (Pre- to Post-op),gene Irs1,−3.722
same,Fold Change (Pre- to Post-op),gene Itga2,−7.892
same,Fold Change (Pre- to Post-op),gene Itga4,−3.78
same,Fold Change (Pre- to Post-op),gene Itga9,−3.569
same,Fold Change (Pre- to Post-op),gene Itga11,−4.037
same,Fold Change (Pre- to Post-op),gene Itgal,−4.124
same,Fold Change (Pre- to Post-op),gene Itgax,−4.359
same,Fold Change (Pre- to Post-op),gene Itgb3,−3.231
same,Fold Change (Pre- to Post-op),gene Itgb4,−4.769
same,Fold Change (Pre- to Post-op),gene Itgb7,−3.042
same,Fold Change (Pre- to Post-op),gene Itih5,−4.018
same,Fold Change (Pre- to Post-op),gene Itpkb,−7.106
same,Fold Change (Pre- to Post-op),gene Itsn1,−3.095
same,Fold Change (Pre- to Post-op),gene Jade2,−5.906
same,Fold Change (Pre- to Post-op),gene Jag2,−6.528
same,Fold Change (Pre- to Post-op),gene Jak3,−3.992
same,Fold Change (Pre- to Post-op),gene Jph4,−3.309
same,Fold Change (Pre- to Post-op),gene Jup,−5.015
same,Fold Change (Pre- to Post-op),gene Kank2,−3.708
same,Fold Change (Pre- to Post-op),gene Kat6a,−3.614
same,Fold Change (Pre- to Post-op),gene Kat6b,−4.178
same,Fold Change (Pre- to Post-op),gene Kcna1,−6.664
same,Fold Change (Pre- to Post-op),gene Kcna5,−3.192
same,Fold Change (Pre- to Post-op),gene Kcna6,−6.135
same,Fold Change (Pre- to Post-op),gene Kcnb1,−5.01
same,Fold Change (Pre- to Post-op),gene Kcnc1,−3.997
same,Fold Change (Pre- to Post-op),gene Kcnc3,−6.358
same,Fold Change (Pre- to Post-op),gene Kcnd3,−5.102
same,Fold Change (Pre- to Post-op),gene Kcnh3,−3.024
same,Fold Change (Pre- to Post-op),gene Kcnj10,−5.742
same,Fold Change (Pre- to Post-op),gene Kcnk3,−9.12
same,Fold Change (Pre- to Post-op),gene Kcnn3,−3.74
same,Fold Change (Pre- to Post-op),gene Kcnq1ot1,−3.128
same,Fold Change (Pre- to Post-op),gene Kdm2a,−4.102
same,Fold Change (Pre- to Post-op),gene Kdm5c,−3.378
same,Fold Change (Pre- to Post-op),gene Kdm6b,−7.911
same,Fold Change (Pre- to Post-op),gene Kdr,−4.468
same,Fold Change (Pre- to Post-op),gene Khsrp,−5.078
same,Fold Change (Pre- to Post-op),gene Kif12,−3.056
same,Fold Change (Pre- to Post-op),gene Kif13a,−4.6449
same,Fold Change (Pre- to Post-op),gene Kif13b,−7.773
same,Fold Change (Pre- to Post-op),gene Kif18b,−3.088
same,Fold Change (Pre- to Post-op),gene Kif21b,−6.902
same,Fold Change (Pre- to Post-op),gene Kif26a,−8.286
same,Fold Change (Pre- to Post-op),gene Kif26b,−4.107
same,Fold Change (Pre- to Post-op),gene Kirrel,−4.23
same,Fold Change (Pre- to Post-op),gene Kit,−3.147
same,Fold Change (Pre- to Post-op),gene Klf3,−3.185
same,Fold Change (Pre- to Post-op),gene Klf5,−3.927
same,Fold Change (Pre- to Post-op),gene Klf9,−4.918
same,Fold Change (Pre- to Post-op),gene Klf13,−4.84
same,Fold Change (Pre- to Post-op),gene Klhdc7a,−6.609
same,Fold Change (Pre- to Post-op),gene Kmt2a,−5.355
same,Fold Change (Pre- to Post-op),gene Kmt2b,−3.555
same,Fold Change (Pre- to Post-op),gene Kmt2e,−4.198
same,Fold Change (Pre- to Post-op),gene Kmt2d,−5.674
same,Fold Change (Pre- to Post-op),gene Kri1,−4.889
same,Fold Change (Pre- to Post-op),gene Ksr1,−5.703
same,Fold Change (Pre- to Post-op),gene L1cam,−7.3658
same,Fold Change (Pre- to Post-op),gene L3mbtl3,−4.906
same,Fold Change (Pre- to Post-op),gene LOC100503956,−4.188
same,Fold Change (Pre- to Post-op),gene LOC101055680,−4.569
same,Fold Change (Pre- to Post-op),gene LOC101056227,−4.596
same,Fold Change (Pre- to Post-op),gene Lama5,−4.931
same,Fold Change (Pre- to Post-op),gene Lamc1,−4.219
same,Fold Change (Pre- to Post-op),gene Lamc3,−4.055
same,Fold Change (Pre- to Post-op),gene Laptm5,−5.278
same,Fold Change (Pre- to Post-op),gene Larp1,−4.205
same,Fold Change (Pre- to Post-op),gene Lcor,−4.132
same,Fold Change (Pre- to Post-op),gene Lcp1,−3.704
same,Fold Change (Pre- to Post-op),gene Lct,−3.244
same,Fold Change (Pre- to Post-op),gene Lect2,−9.259
same,Fold Change (Pre- to Post-op),gene Lhfpl4,−3.865
same,Fold Change (Pre- to Post-op),gene Lhx6,−4.02
same,Fold Change (Pre- to Post-op),gene Limch1,−4.33
same,Fold Change (Pre- to Post-op),gene Llgl1,−3.072
same,Fold Change (Pre- to Post-op),gene Lmf2,−3.353
